Here are results for 14 substances from article doi:10.1101/2021.12.08.471779.

Amino acid sequences for entries named in this document (tags omitted). A change or cut given only in a name is not applied to a line headed by its entry.
UniProt P05825, whole entry, looked up, stated change not applied: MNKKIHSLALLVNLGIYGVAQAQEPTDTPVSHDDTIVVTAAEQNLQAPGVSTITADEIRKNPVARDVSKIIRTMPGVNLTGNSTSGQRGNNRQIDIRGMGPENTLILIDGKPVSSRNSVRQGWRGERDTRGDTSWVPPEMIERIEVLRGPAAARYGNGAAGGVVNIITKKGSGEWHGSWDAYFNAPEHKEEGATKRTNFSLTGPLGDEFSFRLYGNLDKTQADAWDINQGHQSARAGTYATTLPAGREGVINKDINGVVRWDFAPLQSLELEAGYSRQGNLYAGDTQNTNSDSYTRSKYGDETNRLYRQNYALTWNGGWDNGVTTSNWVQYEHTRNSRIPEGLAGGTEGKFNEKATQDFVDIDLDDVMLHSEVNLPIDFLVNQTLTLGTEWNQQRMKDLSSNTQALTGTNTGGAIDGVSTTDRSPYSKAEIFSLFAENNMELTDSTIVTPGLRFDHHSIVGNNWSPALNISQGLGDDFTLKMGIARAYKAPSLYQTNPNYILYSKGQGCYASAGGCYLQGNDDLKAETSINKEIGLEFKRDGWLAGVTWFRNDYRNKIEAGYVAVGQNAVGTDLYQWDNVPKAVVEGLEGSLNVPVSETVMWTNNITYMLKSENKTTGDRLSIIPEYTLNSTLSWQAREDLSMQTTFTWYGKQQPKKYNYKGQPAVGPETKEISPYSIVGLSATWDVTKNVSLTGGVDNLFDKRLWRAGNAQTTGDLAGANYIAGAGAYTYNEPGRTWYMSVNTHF
UniProt P02929, whole entry, looked up, stated change not applied: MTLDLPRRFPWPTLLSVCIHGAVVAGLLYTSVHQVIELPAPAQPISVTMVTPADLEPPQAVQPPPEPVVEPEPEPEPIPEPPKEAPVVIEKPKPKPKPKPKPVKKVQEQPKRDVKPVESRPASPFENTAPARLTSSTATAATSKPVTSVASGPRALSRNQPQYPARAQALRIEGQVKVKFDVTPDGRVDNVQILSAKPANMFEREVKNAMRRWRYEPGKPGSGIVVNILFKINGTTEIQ

What all share (assay): cross-linking
Experiment [1] concerns the target T1, FepA V16C (Escherichia coli K-12) (UniProt P05825).
T1 sequence: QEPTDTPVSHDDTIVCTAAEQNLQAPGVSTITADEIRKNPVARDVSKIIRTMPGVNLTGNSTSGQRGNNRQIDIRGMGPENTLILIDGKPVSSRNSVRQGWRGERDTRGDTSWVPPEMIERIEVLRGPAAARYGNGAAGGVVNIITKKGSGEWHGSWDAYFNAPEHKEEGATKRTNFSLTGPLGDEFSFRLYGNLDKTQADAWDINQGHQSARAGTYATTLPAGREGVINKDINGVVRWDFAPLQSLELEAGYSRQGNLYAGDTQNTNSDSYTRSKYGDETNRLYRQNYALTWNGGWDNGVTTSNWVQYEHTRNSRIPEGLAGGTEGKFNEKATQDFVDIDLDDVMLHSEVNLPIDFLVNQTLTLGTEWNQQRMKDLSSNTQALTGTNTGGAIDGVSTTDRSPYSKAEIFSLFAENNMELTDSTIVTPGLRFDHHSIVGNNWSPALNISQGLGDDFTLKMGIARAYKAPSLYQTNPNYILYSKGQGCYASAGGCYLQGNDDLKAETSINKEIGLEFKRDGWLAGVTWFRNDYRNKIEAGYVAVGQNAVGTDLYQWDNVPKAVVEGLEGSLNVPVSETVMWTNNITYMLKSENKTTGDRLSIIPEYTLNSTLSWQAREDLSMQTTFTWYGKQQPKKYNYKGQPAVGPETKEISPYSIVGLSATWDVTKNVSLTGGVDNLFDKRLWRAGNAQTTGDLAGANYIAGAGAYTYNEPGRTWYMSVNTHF

Experiment [2] deals with T2, FepA S29C (Escherichia coli K-12) (UniProt P05825).
T2 sequence: T1 sequence with C16V, S29C

Experiment [3] deals with T3, FepA A42C (Escherichia coli K-12) (UniProt P05825).
T3 sequence: T1 sequence with C16V, A42C

Residue numbers refer to the chain shown, from its start. These are yes or no findings as the source states them, for the method shown. In cells and extracts the contact can be indirect. Some binding calls cover weakened binding; strength is not graded here.

Consider “TonB C18G A209C (from UniProt P02929 1-239)”, for which the binding entry in experiment [1], in experiment [2] and in experiment [3] was “no binding” in each case.
On to “TonB C18G H20A A209C (from UniProt P02929 1-239)”, for which the binding result in experiment [1] is “no binding”.
Same read-out and setting: then “TonB C18G H20A N208C (from UniProt P02929 1-239)”, with “no binding”.
In the case of “TonB C18G H20A Q160C (from UniProt P02929 1-239)”, the binding entry is “binds” in experiment [1] and “no binding” in experiment [3].
Regarding “TonB C18G H20A R204C (from UniProt P02929 1-239)”, the binding result in experiment [1] was “no binding”.
The same measure, in the same setting: in the case of “TonB C18G H20A R212C (from UniProt P02929 1-239)” it was “no binding”.
With “TonB C18G H20A V206C (from UniProt P02929 1-239)”, in experiment [1], the binding result was “no binding”.
For “TonB C18G M201C (from UniProt P02929 1-239)”, the figures for the binding entry in experiment [2] and in experiment [3] were “binds” and “no binding”, respectively.
“TonB C18G N208C (from UniProt P02929 1-239)”: the binding entry is “binds” in experiment [1], “binds” in experiment [2] and “no binding” in experiment [3].
Turning to “TonB C18G Q160C (from UniProt P02929 1-239)”, the binding result in experiment [1], in experiment [2] and in experiment [3] was “binds” in each case.
“TonB C18G R204C (from UniProt P02929 1-239)”: the binding result in experiment [1] was “binds”; in experiment [2], “binds”; in experiment [3], “no binding”.
Regarding “TonB C18G R212C (from UniProt P02929 1-239)”, the values for the binding result in experiment [1], in experiment [2] and in experiment [3] were “binds”, “binds” and “no binding”, respectively.
Turning to “TonB C18G R214C (from UniProt P02929 1-239)”, the binding entry in experiment [2] is recorded as “binds”; in experiment [3], “no binding”.
With “TonB C18G V206C (from UniProt P02929 1-239)”, the binding entry in experiment [1], in experiment [2] and in experiment [3] was “no binding” throughout.
